Compound in this experiment: Nc1nc2c(ncn2[C@@H]2O[C@H](COP(=O)(O)OP(=O)(O)OP(=O)(O)O)[C@@H](O)[C@H]2O)c(=O)[nH]1 [guanosine triphosphate]
Kind of experiment: NP40-soluble protein abundance relative to vehicle (solubility fold change) (ratio); higher = more soluble protein in presence of GTP. An outline of the steps: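 Jurkat crude lysate (Dounce-homogenised) was treated with eight concentrations from 0.1 to 10 mM for 10 min at room temperature, then 3 min at 37 °C. It was solubilised with 0.8% NP40 and benzonase (60 min, 4 °C) and ultracentrifuged, and the supernatant was TMT-labelled for LC-MS/MS. Intensities were vsn-normalised, and the value is the fold change against the NP40-processed vehicle per replicate, from three independent experiments.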

By UniProt entry, the sequences of proteins in these tests, tags left out. Where a name states a change or a piece, a line headed by the entry shows the natural chain unless it says otherwise.
UniProt Q9NVI1: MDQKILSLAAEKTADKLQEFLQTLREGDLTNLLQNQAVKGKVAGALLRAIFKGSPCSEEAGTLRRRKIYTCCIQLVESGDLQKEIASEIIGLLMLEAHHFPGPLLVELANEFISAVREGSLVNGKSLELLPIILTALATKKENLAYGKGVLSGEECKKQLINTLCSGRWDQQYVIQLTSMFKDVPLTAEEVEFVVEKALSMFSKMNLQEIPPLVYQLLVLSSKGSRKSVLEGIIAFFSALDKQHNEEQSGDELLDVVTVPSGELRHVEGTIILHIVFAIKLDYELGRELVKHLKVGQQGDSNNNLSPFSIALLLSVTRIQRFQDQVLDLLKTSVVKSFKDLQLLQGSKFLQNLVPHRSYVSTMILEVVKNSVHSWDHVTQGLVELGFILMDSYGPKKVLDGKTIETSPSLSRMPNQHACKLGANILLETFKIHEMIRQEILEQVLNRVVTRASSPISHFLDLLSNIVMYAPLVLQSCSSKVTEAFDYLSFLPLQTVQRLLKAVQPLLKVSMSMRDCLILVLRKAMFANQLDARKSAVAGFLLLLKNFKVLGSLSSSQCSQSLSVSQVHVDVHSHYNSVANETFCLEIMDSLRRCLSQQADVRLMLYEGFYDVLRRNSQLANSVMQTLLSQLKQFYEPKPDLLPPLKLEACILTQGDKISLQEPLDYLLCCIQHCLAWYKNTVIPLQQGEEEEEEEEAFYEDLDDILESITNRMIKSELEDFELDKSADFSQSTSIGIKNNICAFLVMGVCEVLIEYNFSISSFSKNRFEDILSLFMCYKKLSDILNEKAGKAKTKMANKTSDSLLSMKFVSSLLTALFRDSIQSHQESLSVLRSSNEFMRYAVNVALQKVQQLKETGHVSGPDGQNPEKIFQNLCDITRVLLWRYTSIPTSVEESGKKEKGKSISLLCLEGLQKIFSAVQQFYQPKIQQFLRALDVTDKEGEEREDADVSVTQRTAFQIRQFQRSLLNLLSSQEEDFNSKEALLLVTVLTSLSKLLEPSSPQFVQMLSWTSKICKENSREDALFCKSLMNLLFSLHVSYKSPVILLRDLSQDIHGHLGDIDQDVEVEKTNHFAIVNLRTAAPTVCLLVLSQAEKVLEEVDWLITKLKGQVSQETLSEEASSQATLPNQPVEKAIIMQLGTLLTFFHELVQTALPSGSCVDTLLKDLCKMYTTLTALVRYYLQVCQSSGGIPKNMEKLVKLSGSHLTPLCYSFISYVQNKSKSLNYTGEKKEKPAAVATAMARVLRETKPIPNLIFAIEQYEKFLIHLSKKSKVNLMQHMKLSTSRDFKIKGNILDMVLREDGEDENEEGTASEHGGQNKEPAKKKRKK
UniProt Q9UL03, whole entry: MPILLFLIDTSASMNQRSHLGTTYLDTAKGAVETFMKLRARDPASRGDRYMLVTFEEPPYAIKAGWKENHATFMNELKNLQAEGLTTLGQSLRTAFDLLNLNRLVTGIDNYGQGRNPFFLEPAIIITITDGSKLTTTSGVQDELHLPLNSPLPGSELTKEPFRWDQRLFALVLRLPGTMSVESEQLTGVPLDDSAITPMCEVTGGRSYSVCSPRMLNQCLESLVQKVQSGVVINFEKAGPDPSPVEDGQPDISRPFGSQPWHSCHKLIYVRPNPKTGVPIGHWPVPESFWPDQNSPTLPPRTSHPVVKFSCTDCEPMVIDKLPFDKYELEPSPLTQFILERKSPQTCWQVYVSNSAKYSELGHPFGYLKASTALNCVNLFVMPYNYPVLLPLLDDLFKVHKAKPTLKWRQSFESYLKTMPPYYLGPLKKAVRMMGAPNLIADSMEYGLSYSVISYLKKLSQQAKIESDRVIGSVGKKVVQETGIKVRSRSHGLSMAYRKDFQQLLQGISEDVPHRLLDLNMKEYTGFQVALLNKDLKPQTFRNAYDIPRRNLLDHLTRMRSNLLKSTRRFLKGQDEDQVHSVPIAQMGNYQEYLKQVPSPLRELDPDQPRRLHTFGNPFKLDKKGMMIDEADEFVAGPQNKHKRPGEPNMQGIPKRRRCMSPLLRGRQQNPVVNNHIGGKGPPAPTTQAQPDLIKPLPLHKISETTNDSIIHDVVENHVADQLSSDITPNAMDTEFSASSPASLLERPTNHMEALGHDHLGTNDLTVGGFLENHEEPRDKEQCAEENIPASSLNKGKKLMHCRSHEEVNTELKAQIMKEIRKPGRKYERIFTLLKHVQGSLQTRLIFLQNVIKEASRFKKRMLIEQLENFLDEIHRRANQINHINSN
UniProt Q9UBV8: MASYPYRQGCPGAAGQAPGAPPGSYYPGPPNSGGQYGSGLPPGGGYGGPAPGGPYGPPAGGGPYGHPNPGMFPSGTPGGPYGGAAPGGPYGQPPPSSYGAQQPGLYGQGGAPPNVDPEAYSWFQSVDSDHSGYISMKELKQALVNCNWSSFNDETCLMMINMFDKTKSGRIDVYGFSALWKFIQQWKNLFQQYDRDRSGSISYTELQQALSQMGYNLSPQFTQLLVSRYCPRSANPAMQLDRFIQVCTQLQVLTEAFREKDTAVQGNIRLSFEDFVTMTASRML
UniProt Q9NWH9: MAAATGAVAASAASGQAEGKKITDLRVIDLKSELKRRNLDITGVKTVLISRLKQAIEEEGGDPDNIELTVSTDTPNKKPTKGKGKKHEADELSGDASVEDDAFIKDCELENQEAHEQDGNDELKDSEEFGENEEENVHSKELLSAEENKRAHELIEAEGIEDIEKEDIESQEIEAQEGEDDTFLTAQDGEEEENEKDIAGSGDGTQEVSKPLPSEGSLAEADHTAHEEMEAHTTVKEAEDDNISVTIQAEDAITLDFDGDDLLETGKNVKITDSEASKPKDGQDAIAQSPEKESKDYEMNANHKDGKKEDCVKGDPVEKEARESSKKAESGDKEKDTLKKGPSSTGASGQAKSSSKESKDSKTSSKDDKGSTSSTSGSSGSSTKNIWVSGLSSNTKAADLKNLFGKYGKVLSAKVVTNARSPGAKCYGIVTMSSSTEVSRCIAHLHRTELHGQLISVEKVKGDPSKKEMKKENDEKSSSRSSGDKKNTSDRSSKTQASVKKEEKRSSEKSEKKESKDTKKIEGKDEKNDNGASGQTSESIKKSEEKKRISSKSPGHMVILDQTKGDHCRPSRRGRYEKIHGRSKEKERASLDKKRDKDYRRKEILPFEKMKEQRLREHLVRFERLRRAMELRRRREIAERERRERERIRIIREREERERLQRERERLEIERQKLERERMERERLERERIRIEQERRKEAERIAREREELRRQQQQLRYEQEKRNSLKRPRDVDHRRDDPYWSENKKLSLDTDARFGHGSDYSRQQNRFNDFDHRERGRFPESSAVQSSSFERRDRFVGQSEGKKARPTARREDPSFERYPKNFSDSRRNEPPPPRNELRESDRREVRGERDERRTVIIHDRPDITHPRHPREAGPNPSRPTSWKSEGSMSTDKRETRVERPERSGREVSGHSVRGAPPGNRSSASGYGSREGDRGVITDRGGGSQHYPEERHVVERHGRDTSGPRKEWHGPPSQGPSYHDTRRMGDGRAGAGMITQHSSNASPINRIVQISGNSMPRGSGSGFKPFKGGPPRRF
UniProt Q9P1F3: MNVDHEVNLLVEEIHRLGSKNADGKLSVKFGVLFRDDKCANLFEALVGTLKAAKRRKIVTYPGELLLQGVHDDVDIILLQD
UniProt Q9UFW8: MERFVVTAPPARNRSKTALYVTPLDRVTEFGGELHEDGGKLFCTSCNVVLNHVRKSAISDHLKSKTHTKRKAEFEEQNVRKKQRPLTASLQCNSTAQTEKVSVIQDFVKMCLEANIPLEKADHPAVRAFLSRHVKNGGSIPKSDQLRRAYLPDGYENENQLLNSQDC
UniProt Q9NX62: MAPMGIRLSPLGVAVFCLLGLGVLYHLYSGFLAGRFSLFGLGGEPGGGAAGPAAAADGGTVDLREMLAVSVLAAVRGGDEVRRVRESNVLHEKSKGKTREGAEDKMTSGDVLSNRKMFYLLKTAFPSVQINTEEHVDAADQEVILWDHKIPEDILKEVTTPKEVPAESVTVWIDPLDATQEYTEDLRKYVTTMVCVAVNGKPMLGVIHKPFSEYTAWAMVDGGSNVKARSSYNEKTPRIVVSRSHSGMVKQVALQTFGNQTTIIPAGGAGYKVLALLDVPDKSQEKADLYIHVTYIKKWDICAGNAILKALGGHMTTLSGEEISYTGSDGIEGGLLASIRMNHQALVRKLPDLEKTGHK
UniProt Q9UKY1: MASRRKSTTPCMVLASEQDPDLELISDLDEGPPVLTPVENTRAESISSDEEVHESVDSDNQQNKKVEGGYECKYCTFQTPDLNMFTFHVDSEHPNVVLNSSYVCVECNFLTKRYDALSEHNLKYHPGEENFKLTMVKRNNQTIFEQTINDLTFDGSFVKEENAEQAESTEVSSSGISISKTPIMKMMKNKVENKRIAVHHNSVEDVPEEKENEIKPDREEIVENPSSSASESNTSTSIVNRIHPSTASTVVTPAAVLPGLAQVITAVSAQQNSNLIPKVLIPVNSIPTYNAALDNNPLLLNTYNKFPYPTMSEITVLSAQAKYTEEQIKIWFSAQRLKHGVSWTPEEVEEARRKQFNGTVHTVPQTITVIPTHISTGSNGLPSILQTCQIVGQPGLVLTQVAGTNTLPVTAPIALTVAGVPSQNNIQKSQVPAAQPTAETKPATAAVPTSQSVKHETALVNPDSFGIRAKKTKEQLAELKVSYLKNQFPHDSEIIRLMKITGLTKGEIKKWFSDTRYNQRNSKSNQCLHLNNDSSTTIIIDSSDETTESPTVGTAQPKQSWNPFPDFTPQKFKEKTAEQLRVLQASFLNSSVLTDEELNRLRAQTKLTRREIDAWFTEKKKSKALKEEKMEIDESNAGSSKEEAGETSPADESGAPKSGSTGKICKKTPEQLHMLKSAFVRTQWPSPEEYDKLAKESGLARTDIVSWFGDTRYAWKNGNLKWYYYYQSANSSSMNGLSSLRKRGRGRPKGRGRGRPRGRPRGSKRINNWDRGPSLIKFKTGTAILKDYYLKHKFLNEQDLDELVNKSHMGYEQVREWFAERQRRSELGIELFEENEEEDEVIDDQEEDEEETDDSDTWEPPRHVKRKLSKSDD
UniProt Q9NVX0: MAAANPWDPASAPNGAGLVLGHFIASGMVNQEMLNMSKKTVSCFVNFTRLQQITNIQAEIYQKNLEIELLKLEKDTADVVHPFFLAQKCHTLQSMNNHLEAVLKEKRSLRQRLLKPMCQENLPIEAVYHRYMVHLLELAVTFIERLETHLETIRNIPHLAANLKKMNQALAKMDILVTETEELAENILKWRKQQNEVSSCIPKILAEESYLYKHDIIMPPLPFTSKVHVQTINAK
UniProt Q9UG22: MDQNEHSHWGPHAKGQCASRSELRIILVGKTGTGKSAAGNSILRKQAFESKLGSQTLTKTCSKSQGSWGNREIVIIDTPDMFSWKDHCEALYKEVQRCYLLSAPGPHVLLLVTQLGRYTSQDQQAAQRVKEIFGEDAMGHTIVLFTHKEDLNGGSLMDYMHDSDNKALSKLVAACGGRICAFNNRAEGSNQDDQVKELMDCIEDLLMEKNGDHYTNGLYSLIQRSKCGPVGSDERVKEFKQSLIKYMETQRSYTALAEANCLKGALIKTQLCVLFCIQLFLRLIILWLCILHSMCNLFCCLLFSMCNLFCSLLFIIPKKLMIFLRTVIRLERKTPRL
UniProt Q9NV88, whole entry: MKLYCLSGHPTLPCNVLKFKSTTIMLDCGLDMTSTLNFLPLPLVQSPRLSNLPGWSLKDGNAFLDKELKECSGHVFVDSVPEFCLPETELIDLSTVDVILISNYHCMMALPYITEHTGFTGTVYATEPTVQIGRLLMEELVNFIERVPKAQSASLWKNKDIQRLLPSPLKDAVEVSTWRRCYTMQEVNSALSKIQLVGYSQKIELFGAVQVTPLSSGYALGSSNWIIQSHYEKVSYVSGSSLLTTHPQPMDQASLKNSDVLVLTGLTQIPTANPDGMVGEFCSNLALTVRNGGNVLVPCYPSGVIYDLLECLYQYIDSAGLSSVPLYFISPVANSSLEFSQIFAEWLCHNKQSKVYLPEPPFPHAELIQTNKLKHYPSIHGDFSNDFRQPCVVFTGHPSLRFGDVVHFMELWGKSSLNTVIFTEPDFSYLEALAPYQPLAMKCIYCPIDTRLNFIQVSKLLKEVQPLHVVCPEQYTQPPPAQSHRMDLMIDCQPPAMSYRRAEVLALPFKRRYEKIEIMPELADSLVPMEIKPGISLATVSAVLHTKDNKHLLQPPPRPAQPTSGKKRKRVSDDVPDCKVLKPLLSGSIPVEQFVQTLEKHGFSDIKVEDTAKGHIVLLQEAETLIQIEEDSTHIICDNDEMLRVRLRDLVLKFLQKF

± gives the standard deviation of the averaged measurements. The list shows a part of the results.

This note sets out measurements from the supplement of paper PMC6411743.

Consider FANCI (UniProt Q9NVI1), for which the NP40-soluble protein abundance (concentration: 0.1mM) stood at 1.02 ± 0.018; the NP40-soluble protein abundance (concentration: 0.5mM) was found to be 1.03 ± 0.062; the NP40-soluble protein abundance (concentration: 1mM) was 0.968 ± 0.032; the NP40-soluble protein abundance (concentration: 2mM) is 0.98 ± 0.062; the NP40-soluble protein abundance (concentration: 4mM) worked out at 0.958 ± 0.054; the NP40-soluble protein abundance (concentration: 6mM) was determined as 0.981 ± 0.034. The NP40-soluble protein abundance is 0.967 ± 0.027 (concentration: 8mM) and 0.955 ± 0.039 (concentration: 10mM).

Regarding UniProt Q9UL03 and related entries, the NP40-soluble protein abundance by setting is: (concentration: 0.1mM) 1.1 ± 0.13; (concentration: 0.5mM) 1.13 ± 0.17; (concentration: 1mM) 1.18 ± 0.24; (concentration: 2mM) 1.26 ± 0.24; (concentration: 4mM) 1.3 ± 0.23; (concentration: 6mM) 1.27 ± 0.22. Moreover, the NP40-soluble protein abundance is, setting by setting: (concentration: 8mM) 1.28 ± 0.26; (concentration: 10mM) 1.28 ± 0.23.

For PEF1 (UniProt Q9UBV8), the NP40-soluble protein abundance came out at 0.946 ± 0.077 (concentration: 0.1mM); 0.888 ± 0.036 (concentration: 0.5mM); 0.995 ± 0.1 (concentration: 1mM); 0.994 ± 0.043 (concentration: 2mM); 1.03 ± 0.076 (concentration: 4mM); 0.993 ± 0.063 (concentration: 6mM). For the same target, the NP40-soluble protein abundance was determined as 0.891 ± 0.084 (concentration: 8mM) and 1.02 ± 0.14 (concentration: 10mM).

Take SLTM (UniProt Q9NWH9): the NP40-soluble protein abundance amounted to 0.953 ± 0.055 (concentration: 0.1mM); 0.968 ± 0.066 (concentration: 0.5mM); 0.991 ± 0.077 (concentration: 1mM); 0.987 ± 0.092 (concentration: 2mM); 1.03 ± 0.08 (concentration: 4mM); 1.1 ± 0.09 (concentration: 6mM). Further, the NP40-soluble protein abundance was 1.16 ± 0.094 (concentration: 8mM) and 1.18 ± 0.12 (concentration: 10mM).

As to UniProt Q9P1F3, the NP40-soluble protein abundance by setting is: (concentration: 0.1mM) 0.719 ± 0.25; (concentration: 0.5mM) 0.744 ± 0.22; (concentration: 1mM) 0.707 ± 0.18; (concentration: 2mM) 0.751 ± 0.24; (concentration: 4mM) 0.794 ± 0.29; (concentration: 6mM) 0.729 ± 0.27. In addition, the NP40-soluble protein abundance amounted to 0.662 ± 0.18 (concentration: 8mM) and 0.745 ± 0.22 (concentration: 10mM).

Consider CGGBP1 (UniProt Q9UFW8), for which the NP40-soluble protein abundance is, setting by setting: (concentration: 0.1mM) 0.87 ± 0.029; (concentration: 0.5mM) 0.821 ± 0.048; (concentration: 1mM) 1.02 ± 0.023; (concentration: 2mM) 1.04 ± 0.048; (concentration: 4mM) 1.07 ± 0.04; (concentration: 6mM) 1.11 ± 0.058. In addition, the NP40-soluble protein abundance reads like this: (concentration: 8mM) 1.04 ± 0.11; (concentration: 10mM) 1.18 ± 0.019.

As for “UniProt Q9UK53-2|A0A0C4DFW2|Q9UK53 and related entries”, the NP40-soluble protein abundance by setting is: (concentration: 0.1mM) 0.938 ± 0.13; (concentration: 0.5mM) 1.04 ± 0.18; (concentration: 1mM) 1.03 ± 0.12; (concentration: 2mM) 1.11 ± 0.16; (concentration: 4mM) 1.08 ± 0.24; (concentration: 6mM) 1.18 ± 0.13. For the same target, the NP40-soluble protein abundance was found to be 1.11 ± 0.28 (concentration: 8mM) and 1.16 ± 0.097 (concentration: 10mM).

As to IMPAD1 (UniProt Q9NX62), the NP40-soluble protein abundance reads like this: (concentration: 0.1mM) 0.98 ± 0.07; (concentration: 0.5mM) 0.949 ± 0.061; (concentration: 1mM) 0.956 ± 0.07; (concentration: 2mM) 0.863 ± 0.065; (concentration: 4mM) 0.883 ± 0.081; (concentration: 6mM) 0.875 ± 0.079. For the same target, the NP40-soluble protein abundance turned out to be 0.924 ± 0.086 (concentration: 8mM) and 0.865 ± 0.073 (concentration: 10mM).

On to ZHX1 (UniProt Q9UKY1), for which the NP40-soluble protein abundance (concentration: 0.1mM) came out at 1.09 ± 0.08; the NP40-soluble protein abundance (concentration: 0.5mM) came out at 1.11 ± 0.039; the NP40-soluble protein abundance (concentration: 1mM) turned out to be 1.12 ± 0.11; the NP40-soluble protein abundance (concentration: 2mM) is 1.09 ± 0.077; the NP40-soluble protein abundance (concentration: 4mM) stood at 1.15 ± 0.041; the NP40-soluble protein abundance (concentration: 6mM) came to 1.09 ± 0.048. For the same target, the NP40-soluble protein abundance (concentration: 8mM) turned out to be 1.19 ± 0.09 and the NP40-soluble protein abundance (concentration: 10mM) is 1.17 ± 0.092.

As for UniProt Q9NVX0 and related entries, the NP40-soluble protein abundance runs as follows: (concentration: 0.1mM) 0.873 ± 0.21; (concentration: 0.5mM) 0.823 ± 0.036; (concentration: 1mM) 1.02 ± 0.079; (concentration: 2mM) 1.05 ± 0.083; (concentration: 4mM) 1.01 ± 0.12; (concentration: 6mM) 0.996 ± 0.14. In addition, the NP40-soluble protein abundance was found to be 0.963 ± 0.022 (concentration: 8mM) and 1.02 ± 0.17 (concentration: 10mM).

On to UniProt Q9UG22, for which the NP40-soluble protein abundance by setting is: (concentration: 0.1mM) 0.919 ± 0.029; (concentration: 0.5mM) 1.01 ± 0.1; (concentration: 1mM) 0.81 ± 0.058; (concentration: 2mM) 0.926 ± 0.013; (concentration: 4mM) 0.8467 ± 0.0037; (concentration: 6mM) 0.92 ± 0.078. Besides, the NP40-soluble protein abundance is, setting by setting: (concentration: 8mM) 0.809 ± 0.012; (concentration: 10mM) 0.925 ± 0.043.

For UniProt Q9NV88 and related entries, the NP40-soluble protein abundance runs as follows: (concentration: 0.1mM) 1.11 ± 0.074; (concentration: 0.5mM) 1.1 ± 0.03; (concentration: 1mM) 1.036 ± 0.0055; (concentration: 2mM) 1.06 ± 0.055; (concentration: 4mM) 1.12 ± 0.11; (concentration: 6mM) 1.08 ± 0.074. Moreover, the NP40-soluble protein abundance runs as follows: (concentration: 8mM) 1.13 ± 0.096; (concentration: 10mM) 1.09 ± 0.054.
